Patent US20030162221A1
These are yes or no findings as the source states them, for the method shown. Binding seen in cells or lysates may run through a third protein. Some results given as binding are weak or reduced against the parent protein; the word gives no strength. For part of these data: Tags and fused reporters may be left off the sequences shown.

Sequences of proteins named here, by UniProt entry; tags and fusion partners are left off. Residues count along the entry.
UniProt P00546, residues 2-298: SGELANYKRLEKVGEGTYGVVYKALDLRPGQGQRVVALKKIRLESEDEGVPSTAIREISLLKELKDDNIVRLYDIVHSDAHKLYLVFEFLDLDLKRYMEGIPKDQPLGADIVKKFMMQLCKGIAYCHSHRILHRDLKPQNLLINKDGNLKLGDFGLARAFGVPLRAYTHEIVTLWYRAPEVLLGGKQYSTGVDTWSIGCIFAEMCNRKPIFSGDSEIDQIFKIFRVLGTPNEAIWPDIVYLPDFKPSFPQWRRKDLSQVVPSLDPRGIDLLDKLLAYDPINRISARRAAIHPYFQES
UniProt P32598: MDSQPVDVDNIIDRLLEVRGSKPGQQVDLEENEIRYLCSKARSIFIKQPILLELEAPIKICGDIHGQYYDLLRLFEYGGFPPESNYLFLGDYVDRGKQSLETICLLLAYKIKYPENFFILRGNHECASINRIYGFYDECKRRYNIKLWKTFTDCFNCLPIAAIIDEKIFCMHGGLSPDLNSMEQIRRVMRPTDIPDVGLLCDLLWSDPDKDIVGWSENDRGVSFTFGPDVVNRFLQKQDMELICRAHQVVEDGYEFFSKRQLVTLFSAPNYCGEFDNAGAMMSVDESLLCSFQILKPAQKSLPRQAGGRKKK

T1: Bcy1 (Saccharomyces cerevisiae) (UniProt P07278)
T1 sequence (looked up): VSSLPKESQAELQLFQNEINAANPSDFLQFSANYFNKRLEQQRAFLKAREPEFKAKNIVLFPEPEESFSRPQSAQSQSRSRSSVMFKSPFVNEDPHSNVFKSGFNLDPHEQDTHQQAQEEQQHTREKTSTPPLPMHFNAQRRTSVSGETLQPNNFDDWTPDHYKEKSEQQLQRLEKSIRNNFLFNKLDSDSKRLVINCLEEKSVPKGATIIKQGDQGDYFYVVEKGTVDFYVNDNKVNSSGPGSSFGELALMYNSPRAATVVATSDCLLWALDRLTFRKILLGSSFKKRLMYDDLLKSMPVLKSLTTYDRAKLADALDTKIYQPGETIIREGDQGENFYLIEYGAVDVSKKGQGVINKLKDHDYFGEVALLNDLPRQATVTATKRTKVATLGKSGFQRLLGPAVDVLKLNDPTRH

B1: Tpk1 (protein, Saccharomyces cerevisiae, UniProt P06244 1-397, looked up)
chain: MSTEEQNGGGQKSLDDRQGEESQKGETSERETTATESGNESKSVEKEGGETQEKPKQPHVTYYNEEQYKQFIAQARVTSGKYSLQDFQILRTLGTGSFGRVHLIRSRHNGRYYAMKVLKKEIVVRLKQVEHTNDERLMLSIVTHPFIIRMWGTFQDAQQIFMIMDYIEGGELFSLLRKSQRFPNPVAKFYAAEVCLALEYLHSKDIIYRDLKPENILLDKNGHIKITDFGFAKYVPDVTYTLCGTPDYIAPEVVSTKPYNKSIDWWSFGILIYEMLAGYTPFYDSNTMKTYEKILNAELRFPPFFNEDVKDLLSRLITRDLSQRLGNLQNGTEDVKNHPWFKEVVWEKLLSRNIETPYEPPIQQGQGDTSQFDKYPEEDINYGVQGEDPYADLFRDF
B2: Tpk2 (protein, Saccharomyces cerevisiae, UniProt P06245 1-380, looked up)
chain: MEFVAERAQPVGQTIQQQNVNTYGQGVLQPHHDLQQRQQQQQQRQHQQLLTSQLPQKSLVSKGKYTLHDFQIMRTLGTGSFGRVHLVRSVHNGRYYAIKVLKKQQVVKMKQVEHTNDERRMLKLVEHPFLIRMWGTFQDARNIFMVMDYIEGGELFSLLRKSQRFPNPVAKFYAAEVILALEYLHAHNIIYRDLKPENILLDRNGHIKITDFGFAKEVQTVTWTLCGTPDYIAPEVITTKPYNKSVDWWSLGVLIYEMLAGYTPFYDTTPMKTYEKILQGKVVYPPYFHPDVVDLLSKLITADLTRRIGNLQSGSRDIKAHPWFSEVVWERLLAKDIETPYEPPITSGIGDTSLFDQYPEEQLDYGIQGDDPYAEYFQDF
B3: Tpk3 (protein, Saccharomyces cerevisiae, UniProt P05986 1-398, looked up)
chain: MYVDPMNNNEIRKLSITAKTETTPDNVGQDIPVNAHSVHEECSSNTPVEINGRNSGKLKEEASAGICLVKKPMLQYRDTSGKYSLSDFQILRTLGTGSFGRVHLIRSNHNGRFYALKTLKKHTIVKLKQVEHTNDERRMLSIVSHPFIIRMWGTFQDSQQVFMVMDYIEGGELFSLLRKSQRFPNPVAKFYAAEVCLALEYLHSKDIIYRDLKPENILLDKNGHIKITDFGFAKYVPDVTYTLCGTPDYIAPEVVSTKPYNKSVDWWSFGVLIYEMLAGYTPFYNSNTMKTYENILNAELKFPPFFHPDAQDLLKKLITRDLSERLGNLQNGSEDVKNHPWFNEVIWEKLLARYIETPYEPPIQQGQGDTSQFDRYPEEEFNYGIQGEDPYMDLMKEF
B4: Clb2 (protein, Saccharomyces cerevisiae, UniProt P24869 1-491, looked up)
chain: MSNPIENTENSQNTSSSRFLRNVQRLALNNVTNTTFQKSNANNPALTNFKSTLNSVKKEGSRIPQFTRESVSRSTAAQEEKRTLKENGIQLPKNNLLDDKENQDPSSQQFGALTSIKEGRAELPANISLQESSSAKEIIQHDPLKGVGSSTEVVHNSVENEKLHPARSQLQVRNTESETDSGKKRPISTIVEQELPKKFKVCDENGKEEYEWEDLDAEDVNDPFMVSEYVNDIFEYLHQLEVITLPKKEDLYQHRNIHQNRDILVNWLVKIHNKFGLLPETLYLAINIMDRFLGKELVQLDKLQLVGTSCLFIASKYEEVYSPSIKHFASETDGACTEDEIKEGEKFILKTLKFNLNYPNPMNFLRRISKADDYDIQSRTLAKFLLEISLVDFRFIGILPSLCAAAAMFMSRKMLGKGKWDGNLIHYSGGYTKEELAPVCHMIMDYLVSPIVHDEFHRKYQSRRFMKASIISVQWALKVRKNGYDIMTLHE
B5: Cln2 (protein, Saccharomyces cerevisiae, UniProt P20438 1-545, looked up)
chain: MASAEPRPRMGLVINAKPDYYPIELSNAELLSHFEMLQEYHQEISTNVIAQSCKFKPNPKLIDQQPEMNPVETRSNIITFLFELSVVTRVTNGIFFHSVRLYDRYCSKRIVLRDQAKLVVATCLWLAAKTWGGCNHIINNVVIPTGGRFYGPNPRARIPRLSELVHYCGDGQVFDESMFLQMERHILDTLNWNIYEPMINDYVLNVDENCLMQYELYENQVTYDKQCSEKRQSQLSQDSDATVDERPYQNEEEEEEDLKLKIKLINLKKFLIDVSAWQYDLLRYELFEVSHGIFSIINQFTNQDHGPFLMTPMTSESKNGEILSTLMNGIVSIPNSLMEVYKTVNGVLPFINQVKEYHLDLQRKLQIASNLNISRKLTISTPSCSFENSNSTSIPSPASSSQSHTPMRNMSSLSDNSVFSRNMEQSSPITPSMYQFGQQQSNSICGSTVSVNSLVNTNNKQRIYEQITGPNSNNATNDYIDLLNLNESNKENQNPATAHYLNGGPPKTSFINHGMFPSPTGTINSGKSSSASSLISFGMGNTQVI
B6: Cdc14 (protein, Saccharomyces cerevisiae, UniProt Q00684 1-551, looked up)
chain: MRRSVYLDNTIEFLRGRVYLGAYDYTPEDTDELVFFTVEDAIFYNSFHLDFGPMNIGHLYRFAVIFHEILNDPENANKAVVFYSSASTRQRANAACMLCCYMILVQAWTPHQVLQPLAQVDPPFMPFRDAGYSNADFEITIQDVVYGVWRAKEKGLIDLHSFNLESYEKYEHVEFGDFNVLTPDFIAFASPQEDHPKGYLATKSSHLNQPFKSVLNFFANNNVQLVVRLNSHLYNKKHFEDIGIQHLDLIFEDGTCPDLSIVKNFVGAAETIIKRGGKIAVHCKAGLGRTGCLIGAHLIYTYGFTANECIGFLRFIRPGMVVGPQQHWLYLHQNDFREWKYTTRISLKPSEAIGGLYPLISLEEYRLQKKKLKDDKRVAQNNIEGELRDLTMTPPSNGHGALSARNSSQPSTANNGSNSFKSSAVPQTSPGQPRKGQNGSNTIEDINNNRNPTSHANRKVVIESNNSDDESMQDTNGTSNHYPKVSRKKNDISSASSSRMEDNEPSATNINNAADDTILRQLLPKNRRVTSGRRTTSAAGGIRKISGSIKK
B7: Gip2 (protein, Saccharomyces cerevisiae, UniProt P40036 1-548, looked up)
chain: MYIKAEQKPQQFERKNEKLDRNKNQQLPDLETDFKGYRVNSDLYNKERDGSTEETLNSLKFLHKPQRVTQMRANRFPEEEVQRNTDLNKRIFSAGNDENVDNESGWSKIAAAKNHTSVESLNGSTRPPFKIELPPLSPKSTVPKSFQAEYPEAKSPGNDMNFEYDEEILIPFAPPVYKKSGELLKSSLKRRSKSLPTTPGIRSGNGVQARDGSPMLIRSKSVHFDQAAPVKYFAEDESPINVNKTEQHDNCLSFKHKPVNLMVDPEEETKMLSSGLETTSIDDDLTTVAPKGFAHPAKISNPNNGKGTNNTKLRKSKRFQNLLKNRTDMPPSKSNKKFVNGGGAHEISDRNSKNYHVVGLYSKNFPILSNKNPKSLKLNIFINLSQNKKVFLQELSLYIHRDNNYFSNSSSFYNIPNSHNGNDCNGVAKGYNAGCTRLIAGRILVKNIFYDKRVVVRYTWDSWRTTHEVECVYISDGDGILPGTNMDIFHFIIDDVSKVDPRGKLEFCIHYSTRNDYEREEYWDNNNGNNYKVDVVMDGFNDPFAAAA
B8: Glc8 (protein, Saccharomyces cerevisiae, UniProt P41818 1-229, looked up)
chain: MGGILKNPLALSPEQLAQQDPETLEEFRRQVYENTQKNAKLTSHKRNIPGLDNTKEEGEIIGTSSTFLPKDTLSLKHEQDMLAKMTPEERVQWNQRNLAENEITKKQFQDIHIDEPKTPYQGAVDPHGEYYRVDDDEDEDNSDKKPCQVANDDIDDLSLGEPEFEIKENKQPDFETNDENDEDSPEARHKKFEEMRKKHYDVRAIFNKKSREALKDEDEDEDDSTTKEP
B9: Sds22 (protein, Saccharomyces cerevisiae, UniProt P36047 1-338, looked up)
chain: MDKNSVNKDSEEKDERHKIEVVDDTNPDFITADSELTQDLPDDVEVIDLVHLKIKSLEDLNLYRFKNLKQLCLRQNLIESISEVEVLPHDKIVDLDFYDNKIKHISSNVNKLTKLTSLDLSFNKIKHIKNLENLTDLENLYFVQNSISKIENLSTLKSLKNLELGGNKVHSIEPDSFEGLSNLEEIWLGKNSIPRLINLHPLKNLKILSIQSNKLKKIENLEELTNLEELYLSHNFITKIEGLEKNLKLTTLDVTSNKITSLENLNHLSNLTDIWASFNKIDQSFESLGENLSALSRLETIYLEGNPIQLENKTSYRRKLTMNLPPSLQKIDATYIRG

Biological target: T1, Bcy1 (Saccharomyces cerevisiae)
Assay: anti-FLAG co-IP, LC-MS/MS

Binder	binding
B1	binds
B2	binds
B3	binds

Biological target: Cdc28 (Saccharomyces cerevisiae) (UniProt P00546)
Assay: anti-FLAG co-IP, LC-MS/MS

Binder	binding
B4	binds
B5	binds

Biological target: Glc7 (Saccharomyces cerevisiae) (UniProt P32598)
Assay: anti-FLAG co-IP, LC-MS/MS

Binder	binding
B6	binds
B7	binds
B8	binds
B9	binds
